Reference: patent US20240368549A1, “ENHANCEMENT OF HEMATOPOIETIC STEM CELL AND HEMATOPOIETIC PROGENITOR CELL EXPANSION WITH AGENTS THAT ACTIVATE TAM RECEPTORS” (CANADIAN BLOOD SERVICES, priority 2021, published 2024)
Entries after “also recorded” stand apart in the source; their conditions may differ.

Tested on: CD34+CD45RA− HSPCs
Experiment: 5-methylcytosine (5MC) level by intracellular flow cytometry
Format: cell-based, human

| SMILES | methylation level of cytosine (5MC) in the DNA of cultured HSPC (14 days culture, compared to STFL control, X2B or C6, hydrate) | effect of TET inhibition on methylation in AA2P and X2A cultures (30 μM, added at day 10) |
| --- | --- | --- |
| O.O=C1O[C@H]([C@@H](O)CO)C(O)=C1OP(=O)([O-])[O-].[Mg+2] [AA2P, L-ascorbic acid 2-phosphate magnesium salt hydrate] | promoted DNA demethylation; also recorded: significantly different; also recorded: hypomethylates | – |
| Nc1nc(=O)n(-c2cccc(-c3ccccc3)c2)cc1Cl [Bobcat339] | – | increased the methylation |
